Assay results taken from patent EP4545563A1, “ANTIBODIES TARGETING ITGA2 AND ANTIBODY-DRUG […]” (Foreseen Technology (Beijing) Co., Ltd., priority 2022, dated 2024).
Changes are numbered by the printed parent chain. These are yes or no findings as the source states them, for the method shown. Some binding calls cover weakened binding; strength is not graded here.

The chains behind the UniProt entries cited, without tags or fusion partners. Residues count along the entry.
UniProt P17301, residues 30-1132: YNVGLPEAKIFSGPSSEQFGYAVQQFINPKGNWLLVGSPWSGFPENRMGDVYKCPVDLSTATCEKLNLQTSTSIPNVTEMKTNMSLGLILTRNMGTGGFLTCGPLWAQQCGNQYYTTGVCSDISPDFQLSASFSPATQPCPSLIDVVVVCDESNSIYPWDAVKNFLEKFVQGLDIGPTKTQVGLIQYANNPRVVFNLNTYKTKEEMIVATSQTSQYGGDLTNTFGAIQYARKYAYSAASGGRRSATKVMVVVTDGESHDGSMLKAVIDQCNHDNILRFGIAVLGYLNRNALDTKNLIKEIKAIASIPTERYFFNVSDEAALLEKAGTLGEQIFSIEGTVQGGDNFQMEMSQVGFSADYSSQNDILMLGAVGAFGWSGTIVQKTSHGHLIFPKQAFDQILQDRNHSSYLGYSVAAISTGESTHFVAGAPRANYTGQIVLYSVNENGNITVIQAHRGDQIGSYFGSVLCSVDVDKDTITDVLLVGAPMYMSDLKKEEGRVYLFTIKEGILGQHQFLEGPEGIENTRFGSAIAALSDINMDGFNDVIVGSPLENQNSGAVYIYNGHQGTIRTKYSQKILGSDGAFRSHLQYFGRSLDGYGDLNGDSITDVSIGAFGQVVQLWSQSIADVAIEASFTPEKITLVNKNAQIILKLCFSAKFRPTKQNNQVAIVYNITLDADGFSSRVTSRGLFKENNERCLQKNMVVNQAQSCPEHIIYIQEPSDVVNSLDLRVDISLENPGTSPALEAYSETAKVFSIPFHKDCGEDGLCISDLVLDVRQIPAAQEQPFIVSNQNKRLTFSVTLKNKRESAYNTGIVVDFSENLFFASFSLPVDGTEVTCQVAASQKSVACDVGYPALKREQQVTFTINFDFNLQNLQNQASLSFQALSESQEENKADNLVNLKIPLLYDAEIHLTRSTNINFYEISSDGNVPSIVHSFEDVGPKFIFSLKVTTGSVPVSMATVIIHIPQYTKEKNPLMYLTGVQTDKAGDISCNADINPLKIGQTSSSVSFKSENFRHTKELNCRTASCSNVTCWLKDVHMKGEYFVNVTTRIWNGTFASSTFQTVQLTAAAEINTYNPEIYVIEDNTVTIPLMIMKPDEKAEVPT

B1: Humanized antibody FS002-A10 (antibody, human IgG1, kappa, V domains shown)
VH: QVQLQQSGPGLVKPSQTLSLTCAISGDSVSSDSAAWNWIRQSPSRGLEWLGRTYYRSKWYNDYAVSVKSRITINPDTSKNQFSLQLNSVTSDDTAVYYCARGSWAAPWLWGQGTLVTVSS
VL: NIQLTQSPPFLSASVGDRVTITCRASQDISSFLAWYQQKPGKAPNLLIHAATTLQSGVPSRFSGSGSGTEFTLTISSLRPEDFATYYCQQLHTYPITFGQGTRLEIKR
B2: Humanized antibody FS002-A15 (antibody, human IgG1, kappa, V domains shown)
VH: RLQLQESGPGLVKPSQTLSLTCTVSGGSISSGGYYWSWIRQHPGKGLEWIGYIYYSGSTYYNPSLKSRVTISVDTSKNQFSLKLSSVTAADTAVYYCARATIYGYFDYWGQGTLVTVSS
VL: EIVLTQSPATLPLSPGERATLSCRASQSVGFYLAWYQQKPGQPPRLLFYDASKRATGIPARFSASGSGTDFTLTISGLEPEDFAVYYCQHRISWPLTFGQGTKVEVKR
B3: Humanized antibody FS002-A36 (antibody, human IgG1, kappa, V domains shown)
VH: QVQLQESGPGLVKPSQTLSLTCTVSGGSISSGGYYWSWIRQHPGKGLEWIGYIYYSGSTYYNPSLKSRVTISVDTSKNQFSLKLSSVTAADTAVYYCARVRLLGGGFDIWGQGTTVTVSS
VL: EIVLTQSPATLSLSPGERATLSCRASQSVSTYLAWYQQKPGQAPRLLIYDTSIRATGIPARFSGSGSGTDFTLTISSLEPEDFAVYYCQQRSNWPLTFGGGTKVEIKR
B4: Humanized antibody FS002-A5 (antibody, human IgG1, kappa, V domains shown)
VH: QVQLQDSGPGLVKPSQTLSLTCTVSGGSISSGGYYWSWIRQHPGKGLEWIGYIYYSGSTYYNPSLKSRVTISVDTSKNQFSLKLSSVTAADTAVYYCARVPVPLVGAFDIWGQGTMVTVSS
VL: B3 VL with T31S, Y32N, A34G, R45S, D50G, T51A, I53N, S92D, N93T
B5: Humanized antibody FS002-A72 (antibody, human IgG1, kappa, V domains shown)
VH: QVQLVDSGGGLVQPGGSLRLSCVASGFAFSNYEMNWVRQAPGKGLEWVSYISSSSSYTNYADSVKGRFTISRDNAKNSLYLQMNSLRAEDTAVYYCARAQVRDAFDIWGQGTTVTVSS
VL: IVMTQSPVTLSVSPGDSATLSCRASQSVDKNLAWYQQKTGQAPRLLIYGAATRATGIPARFSGSGSGTEFTLTISSLRSEDFAVYYCQQYRNWPWTFGLGTKVEIKR
B6: Humanized antibody FS002-B27 (antibody, human IgG1, kappa, V domains shown)
VH: QVQLVQSGAEVKKPGSSVKVSCKASGGTFSSYAISWVRQAPGQGLEWMGRIIPILGIANYAQKFQGRVTITADKSTSTAYMELSSLRSEDTAVYYCARAEGSSWYYFDYWGQGTLVTVSS
VL: NIQLTQSPSSVSASVGDRVTITCRASQGFSRWLAWYQQKPGKAPKLLIYGASSLQSGVPSRFSGSGSGTDFTLTISSLQPEDFATYYCQQANSFPLTFGGGTKLEIKR
B7: Humanized antibody FS002-C11 (antibody, human IgG1, kappa, V domains shown)
VH: RLQLQESGPRLVKPSETLSLTCSVSGGSISSRNHYWAWIRQPPGKGLEWIGYIYYSGSTYYNPSLKSRVTISVDTSKNQFSLKLSSVTAADTAVYYCARVGLLLRDFDYWGQGTLVTVSS
VL: DIQMIQSPSSVSASVGDRVTITCRASQGISNSLAWYQHKPGTTPKLLIYAASSLQGGVPSRFSGSSSETDFTLTISSLQPEDFATYYCQQANSFPITFGQGTRLDIKR
B8: Humanized antibody FS002-C15 (antibody, human IgG1, kappa, V domains shown)
VH: QLQLQESGPGLVKPSETLSLTCTVSGGSISSSSYYWGWIRQPPGKGLEWIGSIYYSGSTYYNPSLKSRVTISVDTSKNQFSLKLSSVTAADTAVYYCARLTIFGVVLYWGQGTLVTVSS
VL: EIVLTQSPATLSLSPGERATLSCQASQTFSDYLAWYQQKPGQAPRLLIYDASTRATGIPARFSGSGSGTDFTLTISSLEPEDFAVYYCQQRSHWPPGYTFGQGTRVEIKR
B9: Humanized antibody FS002-C153 (antibody, human IgG1, lambda, V domains shown)
VH: QVQLQQWGAELVKPGASVKLSCTASGFNIKDTYMHWVKQRPEQGLEWIGRIDPANGNTKYDPKFQGKATITADTSSNTAYLQLSSLTSEDTAVYYCARSYYRYDGYFDVWGAGTMVTVSS
VL: QSALTQPASVSGSPGQSITISCTGTSSDVGGYNYVSWYQQHPGKAPKLMIYDVSNRPSGVSNRFSGSKSGNTASLTISGLQAEDEADYYCSSFTTITTRVFGGGTKLTVLG
B10: Humanized antibody FS002-C241 (antibody, human IgG1, lambda, V domains shown)
VH: RLQLQESGPGLVKPSETLSLTCTVSGGSISSSSYYWGWIRQPPGKGLEWIGSIYYSGSTYYNPSLKSRVTISVDTSKNQFSLKLSSVTAADTAVYYCARRYSYGRDAFDIWGQGTMVTVSS
VL: QSALTQPASVSGSPGQSITISCSGTSSDIGRYNYVSWYQQHPGKAPKLLIFDVSNRPSGVSNRFSGSKSGNTASLTISGLQAEDEADYYCSSYTSTVPYVFGTGTRVAVQG
B11: Humanized antibody FS002-C417 (antibody, human IgG1, kappa, V domains shown)
VH: EVQLVESGGVVVQPGGSLRLSCAASGFTFDDYTMHWVRQAPGKGLEWVSLISWDGGSTYYADSVKGRFTISRDNAKNTLYLQMNSLRAEDTAVYYCARDTGYAMDVWGQGTMVTVSS
VL: NIQMTQSPSSLSASVGDRVTITCRASQSISSYLNWYQQKPGKAPKLLIYAASSLQSGVPSRFSGSGSGTDFTLTISSLQPEDFASYYCQQSYSSWAFGQGTKVEIKR

molecular target: ITGA2-His (human) (UniProt P17301); assay: ELISA on coated ITGA2-His

Binder | binding
B1 | binds
B2 | binds
B3 | binds
B4 | binds
B5 | binds
B6 | binds
B7 | binds
B8 | binds
B9 | binds
B10 | binds
B11 | binds
